Test results reported in paper PMC8287952, “PARP1 and CHK1 coordinate PLK1 enzymatic activity during the DNA damage response to promote homologous recombination-mediated repair” (Nucleic Acids Research, 2021).
These are yes or no findings as the source states them, for the method shown. Binding seen in cells or lysates may run through a third protein. Some binding calls cover weakened binding; strength is not graded here.

Amino acid sequences for entries named in this document (tags omitted).
UniProt P53350: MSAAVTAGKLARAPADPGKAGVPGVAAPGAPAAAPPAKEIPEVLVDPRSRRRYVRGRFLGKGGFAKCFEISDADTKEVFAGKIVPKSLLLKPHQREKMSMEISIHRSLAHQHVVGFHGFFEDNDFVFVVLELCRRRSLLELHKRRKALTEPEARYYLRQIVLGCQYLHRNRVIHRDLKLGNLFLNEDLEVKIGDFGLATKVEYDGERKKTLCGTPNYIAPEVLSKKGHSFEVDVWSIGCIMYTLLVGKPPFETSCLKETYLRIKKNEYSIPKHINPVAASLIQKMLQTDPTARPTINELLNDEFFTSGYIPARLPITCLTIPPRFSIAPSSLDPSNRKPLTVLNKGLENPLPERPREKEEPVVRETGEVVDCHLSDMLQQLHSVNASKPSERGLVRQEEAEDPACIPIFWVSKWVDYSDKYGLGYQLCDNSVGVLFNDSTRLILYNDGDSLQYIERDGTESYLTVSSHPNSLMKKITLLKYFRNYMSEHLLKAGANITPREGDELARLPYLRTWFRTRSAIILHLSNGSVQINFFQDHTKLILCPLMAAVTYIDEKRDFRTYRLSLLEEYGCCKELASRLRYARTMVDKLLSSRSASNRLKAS

Target: epitope-tagged PLK1 (UniProt P53350)
Assay: co-IP; epitope-tagged constructs (Supplementary Figures S4A-C); immunoprecipitation and immunoblotting as previously described

B1: CHK1 construct (1-265) (domain or fragment, UniProt O14757 1-265)
chain: MAVPFVEDWDLVQTLGEGAYGEVQLAVNRVTEEAVAVKIVDMKRAVDCPENIKKEICINKMLNHENVVKFYGHRREGNIQYLFLEYCSGGELFDRIEPDIGMPEPDAQRFFHQLMAGVVYLHGIGITHRDIKPENLLLDERDNLKISDFGLATVFRYNNRERLLNKMCGTLPYVAPELLKRREFHAEPVDVWSCGIVLTAMLAGELPWDQPSDSCQEYSDWKEKKTYLNPWKKIDSAPLALLHKILVENPSARITIPDIKKDRWY
  binding: binds
